For this test, the target named is human 5-HT7B (h5-HT7b) receptors (Homo sapiens, UniProt P34969). The experiment in a line: Competition radioligand binding, h5-HT7b. Conditions: read-out: Ki 5-HT7; [3H]5-CT; membranes of HEK 293 cells.

Chains of the proteins cited; added tags and fusions are not shown. Residues count along the entry.
UniProt P34969, 1-432 limits assumed: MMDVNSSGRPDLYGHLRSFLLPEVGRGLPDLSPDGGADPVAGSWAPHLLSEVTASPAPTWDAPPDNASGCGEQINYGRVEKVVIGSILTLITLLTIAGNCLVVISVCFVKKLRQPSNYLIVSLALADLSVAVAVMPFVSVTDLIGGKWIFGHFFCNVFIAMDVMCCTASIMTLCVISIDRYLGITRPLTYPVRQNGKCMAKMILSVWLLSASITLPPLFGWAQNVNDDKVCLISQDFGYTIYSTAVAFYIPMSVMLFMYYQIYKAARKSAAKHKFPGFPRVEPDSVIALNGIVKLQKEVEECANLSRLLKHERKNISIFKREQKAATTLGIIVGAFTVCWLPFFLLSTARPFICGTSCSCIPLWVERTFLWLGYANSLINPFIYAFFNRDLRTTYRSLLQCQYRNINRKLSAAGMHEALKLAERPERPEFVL

Structures are written as SMILES. Structures were worked out from names or drawings and are uncertain. Bounds are passed on as bounds.

Regarding `N=C(NC(=O)NC1CCCCC1O)N1CCc2ccccc2C1` (stereo not shown), the Ki is above 4 µM.
